Article doi:10.1101/2025.09.04.674186
Results are given in words; binding and its absence hold for the method and conditions named. For some of these results: Binding seen in cells or lysates may run through a third protein. Some results given as binding are weak or reduced against the parent protein; the word gives no strength. For some of these results: Where a sequence is shown, tags or fusion partners need not be part of it.

Chains of the proteins cited; added tags and fusions are not shown.
UniProt Q13547: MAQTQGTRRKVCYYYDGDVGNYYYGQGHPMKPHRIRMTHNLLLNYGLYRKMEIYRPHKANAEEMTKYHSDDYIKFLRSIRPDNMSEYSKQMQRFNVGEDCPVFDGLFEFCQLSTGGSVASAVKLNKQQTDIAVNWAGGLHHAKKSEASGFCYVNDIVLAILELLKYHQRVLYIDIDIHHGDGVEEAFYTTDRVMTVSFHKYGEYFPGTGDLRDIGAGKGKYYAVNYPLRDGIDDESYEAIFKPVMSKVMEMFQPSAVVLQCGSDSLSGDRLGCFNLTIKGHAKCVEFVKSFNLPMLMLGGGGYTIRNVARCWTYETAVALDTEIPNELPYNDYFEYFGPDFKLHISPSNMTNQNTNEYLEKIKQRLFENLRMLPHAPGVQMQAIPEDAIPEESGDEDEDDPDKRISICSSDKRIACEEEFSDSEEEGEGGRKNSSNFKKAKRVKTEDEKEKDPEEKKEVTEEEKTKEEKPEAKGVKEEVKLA
UniProt Q92769: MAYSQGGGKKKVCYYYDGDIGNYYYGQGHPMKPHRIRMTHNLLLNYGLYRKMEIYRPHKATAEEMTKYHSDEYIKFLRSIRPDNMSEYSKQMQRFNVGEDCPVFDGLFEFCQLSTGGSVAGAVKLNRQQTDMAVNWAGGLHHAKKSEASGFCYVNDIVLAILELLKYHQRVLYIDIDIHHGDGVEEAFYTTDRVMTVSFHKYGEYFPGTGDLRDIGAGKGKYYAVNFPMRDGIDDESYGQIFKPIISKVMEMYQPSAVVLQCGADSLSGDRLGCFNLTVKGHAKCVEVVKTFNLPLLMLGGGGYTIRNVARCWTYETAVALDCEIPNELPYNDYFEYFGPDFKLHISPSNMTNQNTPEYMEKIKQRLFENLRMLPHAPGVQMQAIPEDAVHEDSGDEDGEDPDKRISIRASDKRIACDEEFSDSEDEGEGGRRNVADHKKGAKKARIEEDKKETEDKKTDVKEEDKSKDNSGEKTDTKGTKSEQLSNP
UniProt O09106: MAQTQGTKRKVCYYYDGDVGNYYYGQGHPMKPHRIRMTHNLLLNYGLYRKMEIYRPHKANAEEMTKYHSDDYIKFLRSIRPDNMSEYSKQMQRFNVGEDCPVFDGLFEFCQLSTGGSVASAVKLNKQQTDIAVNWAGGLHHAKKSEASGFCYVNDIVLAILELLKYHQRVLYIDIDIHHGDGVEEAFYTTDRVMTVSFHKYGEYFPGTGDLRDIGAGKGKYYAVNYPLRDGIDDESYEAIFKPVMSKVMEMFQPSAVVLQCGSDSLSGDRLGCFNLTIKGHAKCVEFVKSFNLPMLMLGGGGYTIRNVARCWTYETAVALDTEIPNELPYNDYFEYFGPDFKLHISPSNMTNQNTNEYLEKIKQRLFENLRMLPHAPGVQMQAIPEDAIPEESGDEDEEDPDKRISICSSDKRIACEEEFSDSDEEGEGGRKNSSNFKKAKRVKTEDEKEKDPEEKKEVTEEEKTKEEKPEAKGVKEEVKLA
UniProt P70288: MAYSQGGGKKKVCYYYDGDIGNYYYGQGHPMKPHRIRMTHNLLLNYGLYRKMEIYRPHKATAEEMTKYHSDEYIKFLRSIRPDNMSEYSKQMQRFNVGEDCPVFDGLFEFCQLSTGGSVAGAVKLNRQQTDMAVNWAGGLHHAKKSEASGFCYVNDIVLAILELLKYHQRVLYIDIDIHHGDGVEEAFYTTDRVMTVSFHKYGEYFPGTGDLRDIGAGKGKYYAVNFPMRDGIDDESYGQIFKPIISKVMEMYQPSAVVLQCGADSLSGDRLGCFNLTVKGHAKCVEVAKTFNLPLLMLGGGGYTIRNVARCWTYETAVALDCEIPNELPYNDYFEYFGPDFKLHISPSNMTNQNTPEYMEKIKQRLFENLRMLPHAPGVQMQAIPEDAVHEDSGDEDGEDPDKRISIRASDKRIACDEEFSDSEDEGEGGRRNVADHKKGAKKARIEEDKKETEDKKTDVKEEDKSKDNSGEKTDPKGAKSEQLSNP

Columns and labels:
[1] = molecular target: T1, recombinant DDX21 protein (full-length human DDX21, 6xHis-TEV) (human) (UniProt Q9NR30); assay: pull-down
T1 sequence: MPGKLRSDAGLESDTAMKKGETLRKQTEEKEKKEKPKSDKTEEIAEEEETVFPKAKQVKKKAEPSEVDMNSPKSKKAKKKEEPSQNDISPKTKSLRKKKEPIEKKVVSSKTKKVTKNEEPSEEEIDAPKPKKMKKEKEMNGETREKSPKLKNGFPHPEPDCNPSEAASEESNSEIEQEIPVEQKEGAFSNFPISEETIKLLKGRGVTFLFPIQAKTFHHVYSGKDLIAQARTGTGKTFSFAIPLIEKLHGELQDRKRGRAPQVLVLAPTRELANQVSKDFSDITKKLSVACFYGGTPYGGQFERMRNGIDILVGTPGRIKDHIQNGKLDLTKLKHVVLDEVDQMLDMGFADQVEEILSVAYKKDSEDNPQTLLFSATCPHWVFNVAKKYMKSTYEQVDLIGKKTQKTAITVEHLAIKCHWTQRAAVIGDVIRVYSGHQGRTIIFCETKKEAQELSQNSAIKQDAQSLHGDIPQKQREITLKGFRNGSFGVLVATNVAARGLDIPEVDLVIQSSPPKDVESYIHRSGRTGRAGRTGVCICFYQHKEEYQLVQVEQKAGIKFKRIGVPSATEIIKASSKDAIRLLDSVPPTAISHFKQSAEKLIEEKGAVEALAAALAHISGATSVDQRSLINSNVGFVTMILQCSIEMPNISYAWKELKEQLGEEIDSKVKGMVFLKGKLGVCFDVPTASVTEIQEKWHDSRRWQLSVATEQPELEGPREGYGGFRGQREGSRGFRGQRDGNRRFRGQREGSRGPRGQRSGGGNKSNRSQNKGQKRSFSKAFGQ

[2] = molecular target: T2, DDX21 (endogenous) (human) (UniProt Q9NR30); assay: co-IP
T2 sequence: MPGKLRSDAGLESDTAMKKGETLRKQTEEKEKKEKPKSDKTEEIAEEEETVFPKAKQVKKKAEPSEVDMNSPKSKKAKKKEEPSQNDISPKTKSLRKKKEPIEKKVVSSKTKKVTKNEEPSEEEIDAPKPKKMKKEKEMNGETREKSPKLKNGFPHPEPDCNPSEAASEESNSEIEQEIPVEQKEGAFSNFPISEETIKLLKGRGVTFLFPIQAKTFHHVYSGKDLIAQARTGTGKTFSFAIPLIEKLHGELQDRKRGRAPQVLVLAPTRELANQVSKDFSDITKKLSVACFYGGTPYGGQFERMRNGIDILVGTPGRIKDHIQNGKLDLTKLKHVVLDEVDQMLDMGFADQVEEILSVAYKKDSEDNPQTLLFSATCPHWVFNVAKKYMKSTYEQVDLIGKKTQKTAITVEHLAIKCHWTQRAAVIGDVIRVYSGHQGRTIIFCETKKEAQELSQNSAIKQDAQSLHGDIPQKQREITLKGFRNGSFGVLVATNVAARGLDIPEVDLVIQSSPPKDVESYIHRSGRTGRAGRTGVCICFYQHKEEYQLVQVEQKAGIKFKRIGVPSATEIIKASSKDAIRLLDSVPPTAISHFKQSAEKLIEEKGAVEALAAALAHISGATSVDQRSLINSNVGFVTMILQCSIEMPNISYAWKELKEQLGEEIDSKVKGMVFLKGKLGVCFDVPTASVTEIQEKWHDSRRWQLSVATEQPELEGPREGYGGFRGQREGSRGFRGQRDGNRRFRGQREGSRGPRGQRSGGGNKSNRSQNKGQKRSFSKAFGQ

Flag-DDX21 (human) = molecular target: T3, Flag-DDX21 (human) (UniProt Q9NR30); assay: co-IP
T3 sequence: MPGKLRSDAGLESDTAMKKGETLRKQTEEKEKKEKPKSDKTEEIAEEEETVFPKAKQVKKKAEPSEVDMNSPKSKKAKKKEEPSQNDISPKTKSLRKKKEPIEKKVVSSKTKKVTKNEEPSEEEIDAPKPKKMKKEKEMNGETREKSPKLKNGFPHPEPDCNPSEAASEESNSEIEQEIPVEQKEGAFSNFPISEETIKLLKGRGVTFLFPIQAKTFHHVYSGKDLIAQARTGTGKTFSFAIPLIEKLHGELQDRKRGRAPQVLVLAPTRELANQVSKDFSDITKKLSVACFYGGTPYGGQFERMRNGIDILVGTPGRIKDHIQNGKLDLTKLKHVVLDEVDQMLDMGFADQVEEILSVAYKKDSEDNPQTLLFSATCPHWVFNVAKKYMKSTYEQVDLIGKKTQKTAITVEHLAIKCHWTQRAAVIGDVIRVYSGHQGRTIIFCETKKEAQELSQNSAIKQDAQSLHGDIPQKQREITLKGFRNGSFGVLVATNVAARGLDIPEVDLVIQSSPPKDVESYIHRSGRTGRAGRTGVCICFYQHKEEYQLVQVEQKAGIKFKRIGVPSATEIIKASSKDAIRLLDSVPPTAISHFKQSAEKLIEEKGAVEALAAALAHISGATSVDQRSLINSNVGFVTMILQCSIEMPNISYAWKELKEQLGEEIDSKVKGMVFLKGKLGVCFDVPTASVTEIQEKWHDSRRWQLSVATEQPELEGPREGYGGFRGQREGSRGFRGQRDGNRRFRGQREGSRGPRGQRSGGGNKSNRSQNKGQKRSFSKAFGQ

[3] = molecular target: T4, Ddx21 (mouse, endogenous) (mouse (endogenous in fetal liver LK cells)) (UniProt Q9JIK5); assay: proximity ligation
T4 sequence: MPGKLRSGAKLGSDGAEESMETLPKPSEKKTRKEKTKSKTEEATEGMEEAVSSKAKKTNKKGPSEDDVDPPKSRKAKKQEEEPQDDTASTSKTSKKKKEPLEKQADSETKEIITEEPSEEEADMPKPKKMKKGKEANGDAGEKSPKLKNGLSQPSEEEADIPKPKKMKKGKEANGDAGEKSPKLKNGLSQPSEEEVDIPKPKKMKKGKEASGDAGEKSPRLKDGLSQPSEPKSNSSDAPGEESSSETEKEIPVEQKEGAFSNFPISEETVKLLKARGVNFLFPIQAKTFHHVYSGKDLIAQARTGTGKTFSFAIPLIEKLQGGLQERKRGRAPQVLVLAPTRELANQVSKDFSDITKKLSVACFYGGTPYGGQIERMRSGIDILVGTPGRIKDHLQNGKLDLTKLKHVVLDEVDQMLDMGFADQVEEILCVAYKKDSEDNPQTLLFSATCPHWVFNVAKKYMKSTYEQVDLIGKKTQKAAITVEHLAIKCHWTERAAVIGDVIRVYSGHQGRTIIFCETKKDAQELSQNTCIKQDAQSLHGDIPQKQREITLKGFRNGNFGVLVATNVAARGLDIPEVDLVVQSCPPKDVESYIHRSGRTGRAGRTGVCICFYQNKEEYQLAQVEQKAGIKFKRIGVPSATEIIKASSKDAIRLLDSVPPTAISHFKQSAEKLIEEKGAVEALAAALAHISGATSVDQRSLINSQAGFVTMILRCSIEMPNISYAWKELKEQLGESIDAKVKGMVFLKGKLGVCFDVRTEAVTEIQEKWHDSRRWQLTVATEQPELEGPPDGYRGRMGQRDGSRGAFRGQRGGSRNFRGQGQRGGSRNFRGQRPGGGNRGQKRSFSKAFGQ

In the case of “HDAC1 (BPS Bioscience, 50051) (from UniProt Q13547 1-482) (enzyme)”, the binding [1] is reported as “binds”.

In the case of “HDAC1 (endogenous) (from UniProt Q13547 1-482) (enzyme)”, the binding [2] is reported as “binds”.

For “HDAC1-V5 (from UniProt Q13547 1-482) (enzyme)”, the binding (Flag-DDX21 (human)) was “binds”.

With “HDAC2-V5 (from UniProt Q92769 1-488) (enzyme)” the binding (Flag-DDX21 (human)) was “binds”.

“Hdac1 (mouse, endogenous) (from UniProt O09106 1-482) (enzyme)” was tested, and the binding [3] was “binds”.

With “Hdac2 (mouse, endogenous) (from UniProt P70288 1-488) (enzyme)” the binding [3] was “binds”.

B1: Sin3a (mouse, endogenous) (protein, UniProt Q60520 1-1274)
chain: MKRRLDDQESPVYAAQQRRIPGSTEAFSHQHRVLAPAPPVYEAVSETMQSATGIQYSVAPNYQVSAVPQSSGSHGPAIAAVHSSHHHPTAVQPHGGQVVQSHAHPAPPVAPVQGQQQFQRLKVEDALSYLDQVKLQFGSQPQVYNDFLDIMKEFKSQSIDTPGVISRVSQLFKGHPDLIMGFNTFLPPGYKIEVQTNDMVNVTTPGQVHQIPTHGIQPQPQPPPQHPSQPSSQSAPTPAQPAPQPTAAKVSKPSQLQAHTPASQQTPPLPPYASPRSPPVQPHTPVTISLGTAPSLQNNQPVEFNHAINYVNKIKNRFQGQPDIYKAFLEILHTYQKEQRNAKEAGGNYTPALTEQEVYAQVARLFKNQEDLLSEFGQFLPDANSSVLLSKTTAEKVDSVRNDHGGTVKKPQLNNKPQRPSQNGCQIRRHSGTGATPPVKKKPKLMSLKESSMADASKHGVGTESLFFDKVRKALRSAEAYENFLRCLVIFNQEVISRAELVQLVSPFLGKFPELFNWFKNFLGYKESVHLESFPKERATEGIAMEIDYASCKRLGSSYRALPKSYQQPKCTGRTPLCKEVLNDTWVSFPSWSEDSTFVSSKKTQYEEHIYRCEDERFELDVVLETNLATIRVLEAIQKKLSRLSAEEQAKFRLDNTLGGTSEVIHRKALQRIYADKAADIIDGLRKNPSIAVPIVLKRLKMKEEEWREAQRGFNKVWREQNEKYYLKSLDHQGINFKQNDTKVLRSKSLLNEIESIYDERQEQATEENAGVPVGPHLSLAYEDKQILEDAAALIIHHVKRQTGIQKEDKYKIKQIMHHFIPDLLFAQRGDLSDVEEEEEEEMDVDEATGAPKKHNGVGGSPPKSKLLFSNTAAQKLRGMDEVYNLFYVNNNWYIFMRLHQILCLRLLRICSQAERQIEEENREREWEREVLGIKRDKSDSPAIQLRLKEPMDVDVEDYYPAFLDMVRSLLDGNIDSSQYEDSLREMFTIHAYIAFTMDKLIQSIVRQLQHIVSDEVCVQVTDLYLAENNNGATGGQLNSQTSRSLLESAYQRKAEQLMSDENCFKLMFIQSQGQVQLTVELLDTEEENSDDPVEAERWSDYVERYMSSDTTSPELREHLAQKPVFLPRNLRRIRKCQRGREQQEKEGKEGNSKKTMENVESLDKLECRFKLNSYKMVYVIKSEDYMYRRTALLRAHQSHERVSKRLHQRFQAWVDKWTKEHVPREMAAETSKWLMGEGLEGLVPCTTTCDTETLHFVSINKYRVKYGTVFKAP
With B1 the binding [3] was “binds”.
